Reference: EP2457593A1, “Cyclic RGD peptides of amino acids based on thiazoles or oxazoles as selective antagonists of the alpha-v beta-3 integrin” (Lykera Biomed S.A., priority 2010, dated 2012)
At least one structure is not confirmed: it was looked up by name or label, or the drawing left a doubt.

Chains of the proteins cited; added tags and fusions are not shown. Residues count along the entry.
UniProt P05106, 27-788: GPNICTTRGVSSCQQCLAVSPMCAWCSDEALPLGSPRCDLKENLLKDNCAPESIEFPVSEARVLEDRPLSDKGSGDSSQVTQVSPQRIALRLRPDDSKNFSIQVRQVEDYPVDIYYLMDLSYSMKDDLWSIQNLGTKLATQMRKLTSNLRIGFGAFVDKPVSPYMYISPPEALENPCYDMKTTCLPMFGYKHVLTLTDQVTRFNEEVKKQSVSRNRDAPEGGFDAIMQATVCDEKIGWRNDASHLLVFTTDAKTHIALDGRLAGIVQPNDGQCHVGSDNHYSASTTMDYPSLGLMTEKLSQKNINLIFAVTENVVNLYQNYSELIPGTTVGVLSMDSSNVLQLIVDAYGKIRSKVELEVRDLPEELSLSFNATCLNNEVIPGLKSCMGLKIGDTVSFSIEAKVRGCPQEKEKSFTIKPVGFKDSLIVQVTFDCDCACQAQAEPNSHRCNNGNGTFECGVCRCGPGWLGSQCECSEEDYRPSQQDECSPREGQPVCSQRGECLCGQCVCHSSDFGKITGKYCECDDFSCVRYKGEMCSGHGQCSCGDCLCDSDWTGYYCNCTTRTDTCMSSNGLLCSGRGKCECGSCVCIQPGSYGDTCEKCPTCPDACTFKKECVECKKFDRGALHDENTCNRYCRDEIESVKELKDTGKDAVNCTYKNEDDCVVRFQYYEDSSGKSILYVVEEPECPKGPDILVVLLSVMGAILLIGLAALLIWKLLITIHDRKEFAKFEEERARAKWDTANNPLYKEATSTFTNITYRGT
UniProt P06756, 31-1048: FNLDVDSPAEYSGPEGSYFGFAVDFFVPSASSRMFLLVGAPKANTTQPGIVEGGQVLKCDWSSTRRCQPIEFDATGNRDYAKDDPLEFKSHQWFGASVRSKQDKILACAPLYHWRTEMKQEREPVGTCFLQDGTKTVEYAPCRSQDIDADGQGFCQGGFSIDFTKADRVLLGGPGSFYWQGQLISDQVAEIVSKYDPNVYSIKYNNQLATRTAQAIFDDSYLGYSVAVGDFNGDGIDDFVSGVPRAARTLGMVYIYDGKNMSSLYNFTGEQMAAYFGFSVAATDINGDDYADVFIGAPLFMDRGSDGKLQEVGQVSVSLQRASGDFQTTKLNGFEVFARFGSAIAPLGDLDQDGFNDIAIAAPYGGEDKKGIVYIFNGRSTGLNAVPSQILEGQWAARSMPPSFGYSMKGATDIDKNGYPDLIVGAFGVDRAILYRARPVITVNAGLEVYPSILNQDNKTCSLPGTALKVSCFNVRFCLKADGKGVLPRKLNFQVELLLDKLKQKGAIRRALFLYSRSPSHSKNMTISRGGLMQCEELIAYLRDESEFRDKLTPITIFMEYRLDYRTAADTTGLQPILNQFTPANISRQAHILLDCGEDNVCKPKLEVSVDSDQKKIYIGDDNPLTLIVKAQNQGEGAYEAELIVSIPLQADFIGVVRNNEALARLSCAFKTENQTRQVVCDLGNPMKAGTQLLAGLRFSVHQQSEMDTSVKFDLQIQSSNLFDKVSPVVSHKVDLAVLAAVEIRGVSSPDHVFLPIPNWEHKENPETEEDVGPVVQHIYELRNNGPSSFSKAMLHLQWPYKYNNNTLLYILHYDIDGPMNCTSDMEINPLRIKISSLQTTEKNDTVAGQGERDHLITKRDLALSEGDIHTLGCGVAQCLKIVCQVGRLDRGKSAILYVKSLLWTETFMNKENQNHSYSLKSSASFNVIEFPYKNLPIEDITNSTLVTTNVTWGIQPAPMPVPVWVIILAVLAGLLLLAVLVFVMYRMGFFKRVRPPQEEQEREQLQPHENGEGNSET

Each molecule was assayed against HUVEC (αvβ3) (Homo sapiens, UniProt P05106+P06756) (assay: Cell adhesion inhibition, fibrinogen (FB) as ligand, HUVEC). Settings: coating 4.0 µg/ml, read-out: Adhesion inhibition - EC-50.
Assay type: cell-based
An EC50 of 33.1 µM was found for `N=C(N)NCCC[C@@H]1NC(=O)c2csc(n2)-c2csc(n2)-c2csc(n2)CNC(=O)[C@H](CC(=O)O)NC(=O)CNC1=O` [Compound 5, Cyclo-[Arg-Gly-Asp-Thz3X-]] in this work.
An EC50 of 368 µM was found for `N=C(N)NCCC[C@@H]1NC(=O)c2csc(n2)CNC(=O)[C@H](CC(=O)O)NC(=O)CNC1=O` [Compound 3, Cyclo-[Arg-Gly-Asp-Thz1X-]] in this work.
An EC50 of 4.95 µM was found for `N=C(N)NCCC[C@@H]1NC(=O)c2csc(n2)-c2csc(n2)CNC(=O)[C@H](CC(=O)O)NC(=O)CNC1=O` [Compound 4, Cyclo-[Arg-Gly-Asp-Thz2X-]] in this work.
